Data source: PubChem BioAssay AID686943 (Drosophila RNAi Screening Center, 2013)

Purpose: 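Fly genes whose loss alters ERK activation after insulin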 (primary screen)
Cells: Drosophila S2R+ haemocyte-like cells expressing YFP-tagged ERK (Rolled)
Reagent: long dsRNA against Drosophila genes
Conditions: insulin stimulation versus unstimulated cells; dose and duration not given
Detection: 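Antibody staining for doubly phosphorylated ERK divided by ERK-YFP signal, as plate z-scores, in insulin-treated and untreated cells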
Scale: replicate 1, z-score of dpERK with insulin and replicate 2, z-score of dpERK with insulin: higher = more active ERK per ERK-YFP after insulin; replicate 1, z-score of dpERK under basal conditions: higher = more basal active ERK per ERK-YFP; replicate 1, z-score of ERK-YFP with insulin: higher = more YFP-tagged ERK signal
In all, the deposit lists about 23,000 reagents; shown is a random part of those with a known target gene and a result. 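Extra replicates exist only for a retested subset of genes; insulin dose and duration not given; both raised and lowered dpERK matter.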 Names joined by + are all predicted targets of the reagent. Reagent sequences are not shown. Not given: the amount of reagent, the time to read-out.

Gene | amplicon | replicate 1, z-score of dpERK with insulin | replicate 2, z-score of dpERK with insulin | replicate 1, z-score of dpERK under basal conditions | replicate 1, z-score of ERK-YFP with insulin
mTTF (GeneID 34837) | DRSC01909 | -0.04 | 0.71 | -0.48 | 0.09
CG15047 (GeneID 32845) | DRSC19623 | 1.12 | 0.48 | 0.08 | -0.57
CG15047 (GeneID 32845) | DRSC21443 | 0.52 | 0.53 | 0.53 | -1.84
mRpS2 (GeneID 33688) | DRSC00550 | -0.18 | 0.8 | 0.41 | 0.71
CG32855 (GeneID 318250) | DRSC13131 | -0.28 | -0.54 | 1.22 | 0.16
hfw (GeneID 31120) | DRSC18506 | -0.59 | 1.73 | 0.96 | 0.56
CG8032 (GeneID 41026) | DRSC16365 | 0.31 | 1.11 | 1.38 | -0.23
rec (GeneID 49241) | DRSC14998 | 0.48 | 0.47 | -1.01 | -0.14
rec (GeneID 49241) | DRSC15656 | -0.48 | 0.75 | 0.38 | 0.48
hll (GeneID 34822) | DRSC01944 | -2.35 | 0 | 0 | -0.31
PIP4K (GeneID 3885565) | DRSC17213 | -0.02 | 0.29 | 0.62 | 0.1
lgs (GeneID 43791) | DRSC17152 | -0.43 | -0.47 | -0.73 | 1.83
CR33013 (GeneID 14462581) | DRSC06286 | -0.69 | -0.11 | 0.15 | 0.66
CG14443 (GeneID 31595) | DRSC17936 | 0.1 | 0.67 | 0.79 | 0.35
Cad96Ca (GeneID 43026) | DRSC14220 | 1.09 | 0.15 | -0.42 | -1.93
Cad96Ca (GeneID 43026) | DRSC16693 | -0.81 | 0.1 | -0.07 | 0.2
RhoGEF2 (GeneID 36915) | DRSC07531 | 0 | -0.64 | -0.11 | 0.21
PpD3 (GeneID 49779) | DRSC16796 | -0.37 | -0.97 | 1.03 | 0
CG34310 (GeneID 5740536) | DRSC00943 | 0.11 | -0.12 | -2.73 | -0.08
CG31121 (GeneID 42975) | DRSC15361 | -0.27 | 0 | -0.25 | 0.65
CG31121 (GeneID 42975) | DRSC15363 | -1.23 | -0.05 | -1.16 | -0.08
CG7191 (GeneID 34058) | DRSC03022 | 0.5 | 0.32 | -0.36 | 0.8
CG12057 (GeneID 31854) | DRSC17797 | 0.3 | 0.19 | 0.76 | -0.13
CG7720 (GeneID 42257) | DRSC16306 | -0.17 | 1.17 | -0.3 | 0.82
CG7720 (GeneID 42257) | DRSC16307 | 0.63 | 1.36 | 0.43 | 0.32
Inx2 (GeneID 31646) | DRSC18783 | 0.2 | 0.53 | 0.22 | 0.31
CG11788 (GeneID 37295) | DRSC06084 | 0.22 | 0.07 | 0.39 | 0.24
CG15922 (GeneID 50048) | DRSC15128 | 0.15 | -0.57 | -0.06 | 0.16
CG13739 (GeneID 35957) | DRSC06410 | -5.56 | -4.93 | -0.38 | -3.61
T3dh + pgc | DRSC04659 | 0.16 | 0.23 | 0.28 | -0.06
GV1 (GeneID 38238) | DRSC08228 | 1.29 | 1.26 | -0.75 | -0.05
CG14989 (GeneID 38485) | DRSC08448 | -0.22 | 0.73 | 0.6 | 0
CG1701 (GeneID 35661) | DRSC06641 | 0.18 | 0.38 | 0.43 | -0.18
SH3PX1 (GeneID 39136) | DRSC11139 | -0.8 | -1.63 | 0.94 | 0.55
Or67b (GeneID 39120) | DRSC11241 | 0.15 | -0.1 | 1.36 | 0.2
Sesn (GeneID 37755) | DRSC04101 | 0.66 | -0.2 | -3.15 | -1.59
Sesn (GeneID 37755) | DRSC04102 | 0.83 | -0.58 | 0.19 | -0.68
Sesn (GeneID 37755) | DRSC04103 | -0.05 | -1.08 | -0.24 | -0.66
Ptp52F (GeneID 36790) | DRSC06717 | -0.91 | -0.19 | -0.73 | 0.18
CG11414 (GeneID 37923) | DRSC04110 | 0.69 | 0.78 | 0.39 | 0.05
Kdm5 (GeneID 33837) | DRSC03133 | 0.05 | -0.03 | -0.97 | 0.43
CG2772 (GeneID 33559) | DRSC00530 | -0.02 | -0.06 | 0.8 | -0.32
Prosbeta3 (GeneID 41079) | DRSC16801 | -6.2 | -4.75 | -5.44 | 1.2
shtd (GeneID 32473) | DRSC20166 | -0.57 | 0.13 | 0.65 | 0.1
CG5928 (GeneID 31539) | DRSC18391 | 0.49 | 0.06 | 0.1 | 0.18
Vha36-3 (GeneID 31235) | DRSC18615 | -0.65 | 0.07 | -0.45 | 1.34
ClC-b (GeneID 36381) | DRSC07220 | -0.39 | 0.4 | -0.25 | 0.23
SuUR (GeneID 45739) | DRSC11292 | 0.38 | -0.33 | 0 | 0.1
Prosbeta5 (GeneID 45269) | DRSC07517 | -1.48 | -3.35 | -1.8 | -0.87
Tektin-C (GeneID 38653) | DRSC09741 | 0.42 | -0.74 | -1.03 | -4.38
osk (GeneID 41066) | DRSC17023 | 0.4 | 0.59 | -0.16 | 0.23
scny (GeneID 38648) | DRSC10509 | 6.04 | 2.4 | -0.42 | -1.82
scny (GeneID 38648) | DRSC10510 | 0 | 1.17 | -0.52 | -0.43
SkpC (GeneID 32996) | DRSC20375 | 1.53 | -0.45 | 2.97 | -0.44
Rad60 (GeneID 42748) | DRSC15580 | 0.72 | 0.18 | 1.13 | 0.54
c11.1 (GeneID 53436) | DRSC18749 | -0.63 | 0.23 | 0.04 | 0.08
CG14200 (GeneID 32939) | DRSC19555 | -3.78 | -1.59 | -3.6 | -2.08

A few values from above:
Entry for CG15922 (GeneID 50048) [DRSC15128] in “replicate 1, z-score of dpERK with insulin”: 0.15
For “replicate 1, z-score of ERK-YFP with insulin”, CG8032 (GeneID 41026) [DRSC16365] shows -0.23
Result for CG32855 (GeneID 318250) [DRSC13131] in “replicate 1, z-score of dpERK with insulin”: -0.28
osk (GeneID 41066) [DRSC17023], replicate 1, z-score of dpERK under basal conditions = -0.16
For “replicate 1, z-score of ERK-YFP with insulin”, PpD3 (GeneID 49779) [DRSC16796] is entered as 0
